Results are given in words; binding and its absence hold for the method and conditions named. In cells and extracts the contact can be indirect. A result given as binding can be weak or reduced; the word gives no strength.

Amino acid sequences for entries named in this document (tags omitted).
UniProt P53618: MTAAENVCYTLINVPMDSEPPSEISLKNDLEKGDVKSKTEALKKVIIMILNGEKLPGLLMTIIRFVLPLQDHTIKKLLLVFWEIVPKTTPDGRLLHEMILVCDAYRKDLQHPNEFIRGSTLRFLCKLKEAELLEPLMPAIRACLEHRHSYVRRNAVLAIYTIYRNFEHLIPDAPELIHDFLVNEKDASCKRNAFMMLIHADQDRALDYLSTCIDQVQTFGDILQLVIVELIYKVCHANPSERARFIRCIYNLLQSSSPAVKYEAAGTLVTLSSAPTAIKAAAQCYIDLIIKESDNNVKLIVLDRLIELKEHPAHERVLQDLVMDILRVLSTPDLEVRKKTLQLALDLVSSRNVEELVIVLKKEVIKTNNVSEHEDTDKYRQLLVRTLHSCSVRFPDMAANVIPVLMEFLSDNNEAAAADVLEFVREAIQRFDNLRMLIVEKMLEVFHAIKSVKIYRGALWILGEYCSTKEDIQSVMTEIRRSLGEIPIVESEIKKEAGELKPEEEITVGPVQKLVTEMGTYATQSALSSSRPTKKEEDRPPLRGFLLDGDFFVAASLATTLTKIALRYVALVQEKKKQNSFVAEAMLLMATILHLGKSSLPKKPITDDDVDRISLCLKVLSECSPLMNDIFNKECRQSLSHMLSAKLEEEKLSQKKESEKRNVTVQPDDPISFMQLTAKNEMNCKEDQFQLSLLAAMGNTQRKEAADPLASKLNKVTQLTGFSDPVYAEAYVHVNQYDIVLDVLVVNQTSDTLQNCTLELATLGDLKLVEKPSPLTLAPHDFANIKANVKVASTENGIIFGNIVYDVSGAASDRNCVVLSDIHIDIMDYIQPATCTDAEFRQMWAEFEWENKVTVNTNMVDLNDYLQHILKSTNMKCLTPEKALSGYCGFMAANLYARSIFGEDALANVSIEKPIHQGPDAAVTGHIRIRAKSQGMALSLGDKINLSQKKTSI

The test has as its target β-COP (human (endogenous in CEM)) (UniProt P53618). The experiment in a line: co-IP; CEM T cells transduced with adenovirus (Figure 7C) or concentrated MSCV (Figure 8E), 20 mM NH4Cl for 16 hours, not cross-linked; lysed in 1% digitonin, 100 mM NaCl, 50 mM Tris pH 7.0, 1 mM CaCl2, 1 mM MgCl2; precipitated with anti-β-COP M3A5 cross-linked to beads; western blot for Nef.

Consider “HIV-1 Nef M20A (adenoviral) (from UniProt P03406)”, for which the binding result is recorded as “binds”.

These data come from PMC2515349.
